Reference: publication PMC8211107
No constants are given. Whether binding was seen depends on the method and setting. Binding seen in cells or lysates may run through a third protein. For part of these data: Binding can be weak; no strength is given. For part of these data: Tags and fused reporters may be left off the sequences shown. Each block holds one substance with its values, some of them ahead of it.

Protein sequences, listed by entry. Tags and fused reporters are not part of them. Lines headed by an entry give the natural chain unless they say otherwise; changes in a name come on top.
UniProt P06239: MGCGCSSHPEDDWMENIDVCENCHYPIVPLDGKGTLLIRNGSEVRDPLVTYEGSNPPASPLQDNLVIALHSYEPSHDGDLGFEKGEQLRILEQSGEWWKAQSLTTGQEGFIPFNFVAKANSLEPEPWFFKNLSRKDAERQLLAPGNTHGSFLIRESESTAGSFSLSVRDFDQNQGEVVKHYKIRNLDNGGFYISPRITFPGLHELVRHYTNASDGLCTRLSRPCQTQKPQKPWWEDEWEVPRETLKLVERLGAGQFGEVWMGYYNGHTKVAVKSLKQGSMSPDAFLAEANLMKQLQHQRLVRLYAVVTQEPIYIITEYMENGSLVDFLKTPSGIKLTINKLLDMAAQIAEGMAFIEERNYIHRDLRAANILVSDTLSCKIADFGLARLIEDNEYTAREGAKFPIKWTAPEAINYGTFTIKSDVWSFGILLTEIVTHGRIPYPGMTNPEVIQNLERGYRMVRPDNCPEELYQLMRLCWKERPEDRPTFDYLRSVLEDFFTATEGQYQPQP
UniProt P29350: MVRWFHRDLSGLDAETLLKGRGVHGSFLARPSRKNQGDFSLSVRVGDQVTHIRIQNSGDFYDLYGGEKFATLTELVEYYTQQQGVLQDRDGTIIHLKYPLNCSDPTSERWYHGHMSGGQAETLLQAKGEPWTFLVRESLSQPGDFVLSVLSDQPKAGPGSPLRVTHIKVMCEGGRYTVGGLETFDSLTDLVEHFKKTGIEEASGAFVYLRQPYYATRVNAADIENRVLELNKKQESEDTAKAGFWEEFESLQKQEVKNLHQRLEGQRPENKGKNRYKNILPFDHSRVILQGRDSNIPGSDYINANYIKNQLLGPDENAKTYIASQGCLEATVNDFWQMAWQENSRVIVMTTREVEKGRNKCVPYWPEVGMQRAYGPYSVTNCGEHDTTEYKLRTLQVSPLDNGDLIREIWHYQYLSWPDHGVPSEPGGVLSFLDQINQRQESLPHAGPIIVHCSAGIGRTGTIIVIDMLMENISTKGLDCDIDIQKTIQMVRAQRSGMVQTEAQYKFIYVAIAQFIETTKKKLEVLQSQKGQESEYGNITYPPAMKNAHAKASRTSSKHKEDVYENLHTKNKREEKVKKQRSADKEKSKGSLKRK

Legend:
[1] = biological target: Myc-BbLcLRR (expressed in HEK293T cells) (Branchiostoma belcheri); experiment: co-IP; plasmids cotransfected into HEK293T cells; lysates immunoprecipitated with anti-Myc antibody, immunoblotting; with or without pervanadate
[2] = biological target: Myc-BbLcLRR wild-type (expressed in Jurkat TAg T cells) (Branchiostoma belcheri); experiment: co-IP; Jurkat TAg T cells transfected 48 h, stimulated with anti-CD3 for the indicated times; lysates immunoprecipitated with anti-Myc antibody, immunoblotting with anti-Lck antibody
[3] = biological target: Flag-human Lck (expressed in HEK293T cells) (human) (UniProt P06239); experiment: co-IP; plasmids cotransfected into HEK293T cells; lysates immunoprecipitated with anti-Flag antibody, immunoblotting
[4] = biological target: SHP1 (expressed in Jurkat TAg T cells) (UniProt P29350); experiment: condition: only resting T cells, without anti-CD3 stimulation; co-IP; plasmids cotransfected into Jurkat TAg T cells, 48 h, resting cells (no anti-CD3 stimulation); lysates immunoprecipitated with anti-Flag antibody, immunoblotting
[5] = biological target: T1, SHIP1 (expressed in Jurkat TAg T cells) (UniProt Q92835); experiment: as above
T1 sequence: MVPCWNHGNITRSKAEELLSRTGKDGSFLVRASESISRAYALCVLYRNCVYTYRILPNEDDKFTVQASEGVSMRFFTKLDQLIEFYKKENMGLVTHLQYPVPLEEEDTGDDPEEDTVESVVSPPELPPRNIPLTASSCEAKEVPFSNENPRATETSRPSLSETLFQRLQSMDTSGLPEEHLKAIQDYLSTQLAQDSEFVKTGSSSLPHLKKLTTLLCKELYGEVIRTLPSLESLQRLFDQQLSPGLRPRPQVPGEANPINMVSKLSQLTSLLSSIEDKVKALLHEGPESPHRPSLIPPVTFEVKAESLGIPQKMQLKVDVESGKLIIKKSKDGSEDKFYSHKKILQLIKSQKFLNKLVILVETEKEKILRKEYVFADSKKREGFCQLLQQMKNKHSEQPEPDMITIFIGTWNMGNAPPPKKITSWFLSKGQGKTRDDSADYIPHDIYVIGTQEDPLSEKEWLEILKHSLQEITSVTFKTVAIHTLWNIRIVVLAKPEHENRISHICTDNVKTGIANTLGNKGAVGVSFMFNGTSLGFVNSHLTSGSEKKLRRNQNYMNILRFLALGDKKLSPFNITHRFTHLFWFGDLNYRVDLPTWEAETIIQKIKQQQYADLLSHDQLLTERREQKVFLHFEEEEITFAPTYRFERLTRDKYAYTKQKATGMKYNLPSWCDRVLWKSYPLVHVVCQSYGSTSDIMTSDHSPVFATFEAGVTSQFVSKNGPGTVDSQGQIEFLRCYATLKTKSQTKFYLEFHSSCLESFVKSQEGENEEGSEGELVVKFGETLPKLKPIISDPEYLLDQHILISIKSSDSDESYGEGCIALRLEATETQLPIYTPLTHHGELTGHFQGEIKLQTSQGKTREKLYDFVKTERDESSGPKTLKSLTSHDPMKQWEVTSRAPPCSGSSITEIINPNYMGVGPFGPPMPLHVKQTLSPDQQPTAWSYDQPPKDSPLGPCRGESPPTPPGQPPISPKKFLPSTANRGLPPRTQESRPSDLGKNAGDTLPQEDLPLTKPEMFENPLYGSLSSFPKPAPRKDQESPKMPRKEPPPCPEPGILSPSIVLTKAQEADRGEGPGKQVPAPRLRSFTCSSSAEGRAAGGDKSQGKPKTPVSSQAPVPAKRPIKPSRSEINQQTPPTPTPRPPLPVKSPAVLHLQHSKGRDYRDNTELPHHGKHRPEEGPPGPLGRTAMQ

[6] = biological target: SHP2 (expressed in Jurkat TAg T cells) (UniProt Q06124); experiment: as above
[7] = biological target: SHP1 (expressed in Jurkat TAg T cells) (UniProt P29350); experiment: co-IP; plasmids cotransfected into Jurkat TAg T cells, 48 h, stimulated with anti-CD3 antibody; lysates immunoprecipitated with anti-Flag antibody, immunoblotting
[8] = biological target: T1, SHIP1 (expressed in Jurkat TAg T cells); experiment: as above
[9] = biological target: SHP2 (expressed in Jurkat TAg T cells) (UniProt Q06124); experiment: as above

binding [1]: binds
Substance: Flag-human Lck (expressed in HEK293T cells) (from UniProt P06239-1 1-509) (enzyme)

binding [2]: binds
Substance: Lck, endogenous in Jurkat TAg T cells (from UniProt P06239 1-509) (enzyme)

binding [3]: binds
Substance: Myc-BbLcLRR (expressed in HEK293T cells) (from UniProt A0A8A6IFL1) (receptor)

binding [4]: no binding
binding [5]: no binding
binding [6]: no binding
binding [7]: binds
binding [8]: binds
binding [9]: binds
Substance: Myc-BbLcLRR wild-type (expressed in Jurkat TAg T cells) (from UniProt A0A8A6IFL1) (receptor)
